Reference: the supplement of paper PMC3334620
In all, about 33,000 sequences were measured (“E-score (-0.5 to 0.5)”: median about -8e-05, highest 2% from about 0.23 on). This is one part of the list.

Target: T1, Nrg2 (UniProt P38082)
T1 sequence: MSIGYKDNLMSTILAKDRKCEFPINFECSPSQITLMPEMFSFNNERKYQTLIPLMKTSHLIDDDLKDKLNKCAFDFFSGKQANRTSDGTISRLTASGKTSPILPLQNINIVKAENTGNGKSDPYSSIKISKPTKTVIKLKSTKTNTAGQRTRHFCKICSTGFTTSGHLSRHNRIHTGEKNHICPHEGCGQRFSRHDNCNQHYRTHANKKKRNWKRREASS
Assay: PBM E-score (8-mer binding enrichment) (E-score (-0.5 to 0.5)); higher = stronger / more preferred TF binding
Conditions: protein concentration: 100 nM; construct: GST-full length
Procedure: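 Universal 'all 10-mer' protein binding microarrays (Agilent AMADID 015681) probed with GST-tagged S. cerevisiae TFs (full-length or DBD) made by in vitro transcription/translation (PURExpress), about 100-200 nM. Bound TF was detected with fluorescent anti-GST. Each ungapped 8-mer (which stands for itself and its reverse complement) is scored by the PBM enrichment score (E-score), a modified Wilcoxon-Mann-Whitney statistic from -0.5 to +0.5, computed with the Universal PBM Analysis Suite. Scale: above 0.35 generally sequence-specific binding.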

Sequence | PBM E-score
GACACACA | 0.0486
ATCCGCCC | -0.0028
CAGCAGCC | 0.0863
CCCATGCC | -0.0378
AACACCTA | -0.12
CACGCAAC | 0.196
ACGGTCAC | -0.109
GCTACCCC | -0.182
CGTACCAC | -0.126
CTAATTCC | -0.0504
AGTCACGG | -0.0953
AGGCGCAT | 0.0565
CACACGCC | 0.0321
CGCTTTGC | 0.0756
GTCTTCTA | 0.0181
CAAGCGCG | 0.0189
GGCTAATA | 0.0596
AGAAAGGG | 0.0632
CGAGATCC | 0.0418
ACAAGCTG | 0.143
AGGAGGTG | -0.234
ATCGAGAA | 0.146

Sequence | PBM E-score
GCGTAGCC | -0.215
CATGGTCA | 0.236
CACCTAAA | -0.151
AAGCAGTA | -0.0813
CTGGCCGA | -0.163
ACAATGGC | 0.0291
GTACTGAA | 0.118
AGACTTGC | -0.157
CGGATCCC | -0.0591
ACGCGTCC | -0.0132
AGCATTTA | -0.232
CTGGCAGC | -0.247
CAAAATCG | 0.109
GATAGGCC | -0.0419
GATTACCC | 0.117
ACGTCCCG | 0.0264
CCTAAGGC | -0.191
GACCCGAA | -0.0012
AGTTCTGG | 0.0746
CAATCATC | -0.0186
GCGAGACA | -0.117
GATTCGCA | 0.121

Sequence | PBM E-score
CAATCATG | 0.0231
ACCATGCA | 0.132
AAGCCCAC | -0.14
CTTCGCCA | -0.0564
ACCGCCAT | 0.103
CAATAATA | 0.117
CCCAAACC | 0.0648
CAGCCTTA | -0.231
AAGTGGAA | 0.196
CGAACCTC | -0.037
ACTGGGCC | -0.132
AACGGTGC | -0.0929
AGCACCGC | 0.111
AGCTGAAG | 0.0197
AGGTGTTG | -0.0259
TAGAAGCA | -0.0984
GGAGTGAA | 0.0356
GTGTCGGA | -0.00845
TCATTCAA | 0.0872
AACCATAA | 0.0871
ACCGCACC | 0.0861
CTGAGGGA | 0.0137

17 neighbouring entries already listed, quoted:
Sequence | PBM E-score
GTACTGAA | 0.118
AGACTTGC | -0.157
CGGATCCC | -0.0591
ACGCGTCC | -0.0132
AGCATTTA | -0.232
CTGGCAGC | -0.247
CAAAATCG | 0.109
GATAGGCC | -0.0419
GATTACCC | 0.117
ACGTCCCG | 0.0264
CCTAAGGC | -0.191
GACCCGAA | -0.0012
AGTTCTGG | 0.0746
CAATCATC | -0.0186
GCGAGACA | -0.117
GATTCGCA | 0.121
CAATCATG | 0.0231

Going on with the list:

Sequence | PBM E-score
GCAGTTTA | -0.0555
GTACGCAA | -0.131
CCCAAGTA | 0.0104
CCCGGCAC | -0.331
AATCAAGG | 0.21
CTAGCAGA | -0.181
GGGACCTA | 0.245
AGAGTCTA | -0.158
CGCACACG | -0.0461
ATTGTGAC | 0.2
GTCAAGAA | 0.216
ATTTAAAA | 0.086
GTCACCTA | -0.199
GTCAGTCA | -0.113
CTGTATAC | 0.0338
ACGATTGC | 0.197
ACTTAATC | -0.0933
GGTATCAC | -0.0149
GGCATCAC | -0.129
ACAGATAC | 0.131
